# Results: the supplement of paper PMC4604168 (melanoma cell lines)
# The list shows a part of the results. Repeats are few or missing, and single values can be far off.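 Cells were imaged in 1,536-well plates, and nuclei stained with an antibody against cleaved PARP were counted against all DNA-stained nuclei to give the apoptosis fraction. Screening doses were chosen to leave most cells alive, and resting and induced cleaved-PARP levels differ strongly between cell lines.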
# How the values were obtained:
# Assay in all cases: cleaved PARP positive nuclei fraction relative to DMSO control; melanoma cells; higher = more apoptosis
# Settings in all cases: library dose: low library concentration; 72 h
# MZ2-MEL = test system: MZ2-MEL
# MeWo = test system: MeWo
# RPMI7951 = test system: RPMI7951
# RVH-421 = test system: RVH-421
# SkMel28 = test system: SkMel28
# SkMel2 = test system: SkMel2
# SkMel30 = test system: SkMel30
# SkMel5 = test system: SkMel5
# UACC257 = test system: UACC257
# UACC62 = test system: UACC62
# WM115 = test system: WM115
# WM1716 = test system: WM1716
# WM1745 = test system: WM1745
# WM3526 = test system: WM3526
# WM3619 = test system: WM3619
# WM451Lu = test system: WM451Lu
Structure (SMILES),cleaved PARP positive nuclei fraction (MZ2-MEL) [%],cleaved PARP positive nuclei fraction (MeWo) [%],cleaved PARP positive nuclei fraction (RPMI7951) [%],cleaved PARP positive nuclei fraction (RVH-421) [%],cleaved PARP positive nuclei fraction (SkMel28) [%],cleaved PARP positive nuclei fraction (SkMel2) [%],cleaved PARP positive nuclei fraction (SkMel30) [%],cleaved PARP positive nuclei fraction (SkMel5) [%],cleaved PARP positive nuclei fraction (UACC257) [%],cleaved PARP positive nuclei fraction (UACC62) [%],cleaved PARP positive nuclei fraction (WM115) [%],cleaved PARP positive nuclei fraction (WM1716) [%],cleaved PARP positive nuclei fraction (WM1745) [%],cleaved PARP positive nuclei fraction (WM3526) [%],cleaved PARP positive nuclei fraction (WM3619) [%],cleaved PARP positive nuclei fraction (WM451Lu) [%]
"Nc1nc(F)nc2c1ncn2[C@@H]1O[C@H](CO)[C@@H](O)[C@@H]1O [fludarabine] + CCN(CC)CCCCNc1ncc2cc(-c3cc(OC)cc(OC)c3)c(NC(=O)NC(C)(C)C)nc2n1 [PD173074] (first compound 0.2 µM, partner dose 0.1 µM)",116,1020,68.1,60.3,125,636,394,404,88.1,60.9,105,135,82,246,115,431
"CN1CCN(c2ccc3nc(-c4c(N)c5c(F)cccc5[nH]c4=O)[nH]c3c2)CC1 [Dovitinib] + O=C(Nc1ccccc1)c1cc([N+](=O)[O-])ccc1Cl [GW9662] (first compound 0.1 µM, partner dose 2 µM)",109,59.1,153,76.9,167,69.8,47.6,67.6,599,101,263,70.7,96.5,93.6,81.6,138
"O=C(O)[C@@H]1[O][Sb](=[O])([O][Sb]2(=[O])[O][C@H]([C@H](O)CO)[C@H](O)[C@H](C(=O)O)[O]2)[O][C@H]([C@H](O)CO)[C@@H]1O (some centres undefined) [stibogluconate] + Cc1cc([N+](=O)[O-])ccc1NS(=O)(=O)c1cc(Cl)ccc1Cl [FH535] (first compound 2 µM, partner dose 1 µM)",105,20.5,116,93.6,115,95.4,71.9,91.4,94,97.2,129,109,102,63.8,85.6,136
"CN1CCN(c2ccc3nc(-c4c(N)c5c(F)cccc5[nH]c4=O)[nH]c3c2)CC1 [Dovitinib] + Cc1ccc(NC(=O)c2cccc(N(C)C)c2)cc1NC(=O)c1ccc(O)cc1 [ZM336372] (first compound 0.1 µM, partner dose 2 µM)",62.8,182,69.6,135,91.4,37.1,121,39,103,204,216,106,108,71.5,85.7,67.6
"Cn1c(=O)n(-c2ccc(C(C)(C)C#N)cc2)c2c3cc(-c4cnc5ccccc5c4)ccc3ncc21 + NC(=O)Nc1cc(-c2cccc(F)c2)sc1C(=O)N[C@H]1CCCNC1 [AZD7762] (first compound 0.004 µM, partner dose 0.02 µM)",78.6,72.8,111,84,128,45.7,66.9,151,211,75.5,153,186,105,289,230,35.5
"Nc1nc(F)nc2c1ncn2[C@@H]1O[C@H](CO)[C@@H](O)[C@@H]1O [fludarabine] + CC1(C)NC(=O)N(c2ccc([N+](=O)[O-])c(C(F)(F)F)c2)C1=O [nilutamide] (first compound 0.2 µM, partner dose 1 µM)",38.6,935,166,99.3,209,472,398,492,352,103,47.1,126,99.8,221,108,232
"Cc1cc(Nc2cc(N3CCN(C)CC3)nc(/C=C/c3ccccc3)n2)n[nH]1 + Oc1cc(-c2nc(-c3ccccc3)[nH]c2-c2ccncc2)ccc1Cl [L779450] (first compound 0.04 µM, partner dose 0.2 µM)",95.2,29.4,75.4,132,257,174,40.6,148,140,374,125,87.1,102,111,110,69.1
"CC(C)C[C@H](NC(=O)[C@H](Cc1ccccc1)NC(=O)c1cnccn1)B(O)O [Bortezomib] + CN(NC(=O)CC(=O)NN(C)C(=S)c1ccccc1)C(=S)c1ccccc1 [STA4783] (first compound 0.001 µM, partner dose 0.006 µM)",224,177,114,46.6,58.8,69.1,60.3,85.8,88.4,142,405,680,253,66.8,574,224
"Nc1ccn([C@@H]2O[C@H](CO)[C@@H](O)C2(F)F)c(=O)n1 [gemcitabine] + COc1cc(N2CCC(N3CCN(C)CC3)CC2)ccc1Nc1ncc(Cl)c(Nc2ccccc2S(=O)(=O)C(C)C)n1 [NVP-TAE684] (first compound 0.0004 µM, partner dose 0.08 µM)",118,149,43.5,85.2,45.3,40.3,103,154,129,165,176,202,147,79.7,136,77.7
"O=C(O)c1ccc2c(c1)nc(Nc1cccc(Cl)c1)c1ccncc12 + CN(C)S(=O)(=O)c1ccc2c(c1)/C(=C/c1cc3c([nH]1)CCCC3)C(=O)N2 [SU6656] (first compound 0.4 µM, partner dose 0.4 µM)",177,121,96.8,49.1,781,49.5,69,82.9,40.2,76.6,332,103,122,465,93.9,85.7
"Nc1ccn([C@@H]2O[C@H](CO)[C@@H](O)C2(F)F)c(=O)n1 [gemcitabine] + Oc1nc(-c2ccc(C(F)(F)F)cc2)nc2c1CSCC2 [XAV939] (first compound 0.0004 µM, partner dose 2 µM)",158,79.4,37.8,74.7,81.5,57.3,17.4,41,107,198,58.6,196,300,250,15.1,237
"O=C(O)[C@@H]1[O][Sb](=[O])([O][Sb]2(=[O])[O][C@H]([C@H](O)CO)[C@H](O)[C@H](C(=O)O)[O]2)[O][C@H]([C@H](O)CO)[C@@H]1O (some centres undefined) [stibogluconate] + Cn1cc(/C=C2\C(=O)Nc3cccnc32)c2ccccc21 [GW441756] (first compound 2 µM, partner dose 0.4 µM)",85.3,71.1,198,94.7,38.6,22.9,505,82.6,69.9,50.2,25.6,92.4,92,70.6,83.8,90.3
"CCCS(=O)(=O)Nc1ccc(F)c(C(=O)c2c[nH]c3ncc(Cl)cc23)c1F + O=C(CCCCCCC(=O)Nc1ccccc1)NO [vorinostat] (first compound 0.08 µM, partner dose 0.08 µM)",100,61.4,59.1,90.6,144,143,83.2,32.8,72.1,123,72.4,36.5,82.2,39.1,206,69.6
"Cc1cc(Nc2cc(N3CCN(C)CC3)nc(/C=C/c3ccccc3)n2)n[nH]1 + O=C(O)C(=O)Nc1sc2c(c1C(=O)O)CCNC2 [TCS401] (first compound 0.04 µM, partner dose 1.66667 µM)",97.4,35.6,30.5,145,182,162,19.5,92,507,151,152,25,99.9,88.2,109,41.4
"Nc1nc(F)nc2c1ncn2[C@@H]1O[C@H](CO)[C@@H](O)[C@@H]1O [fludarabine] + Oc1cc(-c2nc(-c3ccccc3)[nH]c2-c2ccncc2)ccc1Cl [L779450] (first compound 0.2 µM, partner dose 0.2 µM)",74.6,991,96,169,34.6,1110,561,434,145,97.1,119,22.8,92.1,514,112,771
"CNC(=O)c1cc(Oc2ccc(NC(=O)Nc3ccc(Cl)c(C(F)(F)F)c3)cc2)ccn1 [sorafenib] + O=S(=O)(c1ccccc1)N(CC(F)(F)F)c1ccc(C(O)(C(F)(F)F)C(F)(F)F)cc1 [T0901317] (first compound 0.4 µM, partner dose 1.4 µM)",81.8,58.8,27.8,307,151,79.1,53.4,76,150,177,41.4,123,86.3,85.6,68.3,77
"CNC(=O)c1cc(Oc2ccc(NC(=O)Nc3ccc(Cl)c(C(F)(F)F)c3)cc2)ccn1 [sorafenib] + O=C1NC(=O)/C(=C/c2ccc(-c3ccc(F)cc3O)o2)S1 [AS252424] (first compound 0.4 µM, partner dose 1 µM)",146,95.2,81,51.6,149,114,52,156,235,29.5,109,175,97.8,75.4,103,34.5
"C=C(c1ccc(C(=O)O)cc1)c1cc2c(cc1C)C(C)(C)CCC2(C)C [Bexarotene] + O=C(Nc1cccc(Cl)c1)Nc1ncc(CCNc2ncnc3ccsc23)s1 [SNS314] (first compound 2 µM, partner dose 0.0008 µM)",149,114,251,127,85.6,161,59.9,51.7,104,162,53,43.5,110,90.3,121,55.7
"O=C(O)[C@@H]1[O][Sb](=[O])([O][Sb]2(=[O])[O][C@H]([C@H](O)CO)[C@H](O)[C@H](C(=O)O)[O]2)[O][C@H]([C@H](O)CO)[C@@H]1O (some centres undefined) [stibogluconate] + O=C(CCCCCCC(=O)Nc1ccccc1)NO [vorinostat] (first compound 2 µM, partner dose 0.08 µM)",112,151,84.4,324,390,39.9,59.5,125,166,49.3,62,114,1550,55,108,362

# Taken from above.
# cleaved PARP positive nuclei fraction (SkMel30) [%], CNC(=O)c1cc(Oc2ccc(NC(=O)Nc3ccc(Cl)c(C(F)(F)F)c3)cc2)ccn1 [sorafenib] + O=C1NC(=O)/C(=C/c2ccc(-c3ccc(F)cc3O)o2)S1 [AS252424] (first compound 0.4 µM, partner dose 1 µM) is entered as 52
# cleaved PARP positive nuclei fraction (MeWo) [%], Nc1nc(F)nc2c1ncn2[C@@H]1O[C@H](CO)[C@@H](O)[C@@H]1O [fludarabine] + CCN(CC)CCCCNc1ncc2cc(-c3cc(OC)cc(OC)c3)c(NC(=O)NC(C)(C)C)nc2n1 [PD173074] (first compound 0.2 µM, partner dose 0.1 µM) is entered as 1020
